Measured values as given in PubChem BioAssay AID720534 (National Center for Advancing Translational Sciences (NCATS), 2013).
Among all 1,600 compounds or so, about 990 (62%) were called active. So high a share suggests a set chosen from earlier hits. Inconclusive means that the source gave no clear call. Such entries were picked first, then a sample of the others. Calls come from the whole dose curve; as a rule, active = well fitted inhibition curve with a large enough effect; inconclusive = small, poorly fitted or top-dose-only effect; inactive = no such curve, though single readings can be large or run the other way. Potencies of inconclusive entries are doubtful fits and often do not repeat.

Assay: qHTS for Inhibitors of TGF-b: Confirmation of Cherry Picks; note: nearly all actives have a fitted effect of over 65% in size
Conditions: HepG2 CAGA-GFP TGF-b reporter, GFP fluorescence, 18 h, cells stimulated with TGF-beta, 500 pg/mL; activity, negative = inhibition: at 46.1 µM (top of the series)
Method in brief: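 HEPG2 CAGA-GFP reporter cells (1000/well, DMEM 1% FBS) given compound then TGF-beta at 500 pg/mL final for 18 hours at 37 degrees C. Per-cell GFP summed per well; normalized to unstimulated and stimulated DMSO wells, curves fitted.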
% is set by controls: 0 for no effect and ±100 for the full control effect; potency is the fitted concentration of half-maximal effect.

SMILES | Potency | activity, negative = inhibition
CCCCOc1ccc(CSCCNC(=S)Nc2ccccc2)cc1 | inconclusive: 29.1 µM [inhibitor, single point] | –
CN(C)CCNC(=O)c1cccc2[nH]c(-c3ccncc3)nc12 | active: 16.4 µM | –
Cc1ccc(NC(=O)c2nc[nH]c2C(=O)NCCCNC(=O)c2[nH]cnc2C(=O)Nc2ccc(C)cc2)cc1 | inconclusive: 29.1 µM [inhibitor, single point] | –
Cc1cccc(C)c1-n1nnnc1C(c1cccs1)N1CCN(C/C=C/c2ccccc2)CC1 (configuration not stated) | inconclusive: 11.6 µM [inhibitor, partial curve] | –
Cc1c(C(=O)Oc2cccc3cccnc23)cccc1[N+](=O)[O-] | – | inactive: -9.76%
COc1cc(/C=C(\C#N)c2nc3ccccc3[nH]2)cc(Br)c1OCc1ccccc1 | inconclusive: 29.1 µM [inhibitor, single point] | –
COc1cccc(/C=N/Nc2ccc([N+](=O)[O-])cn2)c1O | active: 1.64 µM | –
Oc1ccccc1-c1nc(NCc2cccnc2)c2ccccc2n1 | inconclusive: 29.1 µM [inhibitor, single point] | –
C[C@H](NC(=O)c1nc[nH]c1C(=O)NCCCCCNC(=O)OC(C)(C)C)C(=O)OC(C)(C)C | – | inactive: -11.4%
CC1(Cc2cccc(C(F)(F)F)c2)C(=O)Nc2ccc(-c3ccc(F)c(Cl)c3)cc21 (configuration not stated) | inconclusive: 23.1 µM [inhibitor, single point] | –
COc1cccc(Cl)c1NC(=O)N1CCN(c2cc(C)nc3ccccc23)CC1 | – | inactive: -68.5%
COc1ccc(S(=O)(=O)Nc2ccc(F)c(F)c2)cc1Cl | – | inactive: -19.4%
COc1cc(-c2noc(C)c2/C=C/c2cccc([N+](=O)[O-])c2)cc(OC)c1OC | inconclusive: 13 µM [inhibitor, partial curve, poor fit] | –
CCCCN(CC)C(=O)CSc1nc2n[nH]c(C)c2c(=N)n1-c1cccc(C)c1 | inconclusive: 14.6 µM [inhibitor, partial curve, poor fit] | –
O=S(=O)(NCC(Nc1ccccc1)c1ccccc1)c1ccc(Cl)cc1 (configuration not stated) | inconclusive: 20.6 µM [inhibitor, single point] | –
CCOC(=O)c1ccc2c(c1)nc(C1CCN(S(=O)(=O)c3cccs3)CC1)n2CC | inconclusive: 23.1 µM [inhibitor, partial curve, poor fit] | –
O=C(Cc1cccc(NC(=O)C2CCCN(C(=O)C3CCCCC3)C2)c1)Nc1cccc(C(=O)N2CCCC2)c1 (configuration not stated) | inconclusive: 18.4 µM [inhibitor, single point] | –
COc1ccc(S(=O)(=O)n2nc(-c3ccc(Cl)cc3)cc2N)cc1 | inconclusive: 16.4 µM [inhibitor, single point] | –
CCC(C(=O)Oc1c(C(C)C)cccc1C(C)C)c1ccccc1 (configuration not stated) | inconclusive: 18.4 µM [inhibitor, single point] | –
COc1ccc(-c2nn(-c3ccccc3)cc2C(=O)N2c3ccc(C)cc3C3CN(C)CCC32)cc1 (configuration not stated) | – | inactive: -6.63%
O=C(CCC(=O)N1CCN(S(=O)(=O)c2ccc3ccccc3c2)CC1)Nc1cc(Cl)cc(Cl)c1 | inconclusive: 2.91 µM [inhibitor, full curve] | –

SMILES | Potency | activity, negative = inhibition
CCC(C)NS(=O)(=O)c1ccc(S(=O)(=O)N2CC=C(c3ccc(F)cc3)CC2)cc1 (configuration not stated) | inconclusive: 13 µM [inhibitor, partial curve, poor fit] | –
CCOc1ccc(CCN2C(=S)N([C@@H](CC(C)C)CN3CCCC3CN3C(=S)NC[C@@H]3Cc3ccc(O)cc3)C[C@@H]2Cc2ccccc2)cc1 (some centres not stated) | inconclusive: 4.11 µM [inhibitor, full curve] | –
Cc1ccc(NC(=S)NCCc2c[nH]c3ccccc23)c(C)c1 | – | inactive: -20.9%
Cc1cccc(COCC(CC(C)C)N2CCN(C(=O)c3ccc(C(C)(C)C)cc3)CCC2=O)c1 (configuration not stated) | inconclusive: 29.1 µM [inhibitor, single point] | –
Cc1ccc(N2CCN(C(=O)c3ccccc3)CC2)c(C)c1 | inconclusive: 20.6 µM [inhibitor, single point] | –
CCc1ccc(CN(C)C(=O)c2cc(COc3cccc4cnccc34)on2)cc1 | inconclusive: 18.4 µM [inhibitor, partial curve] | –
Oc1ccc(C[C@H]2CNC(=S)N2CC2CCCN2C[C@H](Cc2ccccc2)N2C[C@H](Cc3ccc(O)cc3)N(CC3CCCCC3)C2=S)cc1 (some centres not stated) | active: 14.6 µM | –
CCCc1cc(-c2n[nH]c(=S)n2CC)c2ccccc2n1 | inconclusive: 23.1 µM [inhibitor, single point] | –
COc1ccc(-c2csc(Nc3ccc(Oc4ccccc4)cc3)n2)cc1 | active: 7.31 µM | –
CC(=O)Nc1ccc(S(=O)(=O)N2CCN(Cc3nc4sc(C)c(C)c4c(=O)[nH]3)CC2)cc1 | – | inactive: -5.97%
COc1cc(NC(=O)c2[nH]cnc2C(N)=O)cc(C(=O)Nc2cccc(C(F)(F)F)c2)c1 | active: 16.4 µM | –
CC(Oc1ccc(Cl)cc1Cl)C(=O)NC1=NN(c2ccccc2)C(=O)C1 (configuration not stated) | inconclusive: 18.4 µM [inhibitor, single point] | –
Oc1c(CN2CCOCC2)cc(COCc2ccccc2)c2cccnc12 | – | inactive: -21.9%
Cc1ccc2nc(-c3ccccn3)c(Nc3ccccc3C)n2c1 | active: 8.2 µM | –
COc1cccc(/C=N/NC(=O)c2ccncc2)c1OC(=O)c1ccc(Br)cc1 | inconclusive: 18.4 µM [inhibitor, partial curve] | –
CCOC(=O)c1c(-c2cccs2)csc1N | – | inactive: -7.56%
N#C/C(=N\Nc1ccc(Cl)cc1)C(=O)c1ccsc1 | active: 8.2 µM | –
OCC1(Cc2ccccc2)CCN(Cc2cnc(-c3ccc(Cl)cc3)nc2)CC1 | – | inactive: -10.3%
Cc1ccc(COC(=O)c2nn(C)c(=O)c3ccccc23)cc1 | inconclusive: 29.1 µM [inhibitor, single point] | –
CCc1nc(OCc2ccco2)c2sc3nc4c(cc3c2n1)COC(C)(C)C4 | inconclusive: 20.6 µM [inhibitor, partial curve] | –
Cc1c(C(=O)N2CCN(Cc3ccc4c(c3)OCO4)CC2)sc2ncnc(N3CCN(c4ccccc4F)CC3)c12 | inconclusive: 16.4 µM [inhibitor, partial curve] | –

Reprinted at random: two entries already listed, in no set order.
SMILES | Potency | activity, negative = inhibition
Cc1ccc2nc(-c3ccccn3)c(Nc3ccccc3C)n2c1 | active: 8.2 µM | –
CC(=O)Nc1ccc(S(=O)(=O)N2CCN(Cc3nc4sc(C)c(C)c4c(=O)[nH]3)CC2)cc1 | – | inactive: -5.97%
